{"source": "patent US6569403B1", "about": "“Determining effects of external stimuli on the brain using PET” (Miicro, Incorporated, priority 1995, dated 2003)", "system": "healthy human subjects", "experiment": "PET with FDG: cerebral glucose metabolism (CMRglu) under behavioral clamp, drug versus placebo", "format": "in vivo", "conditions": "nimodipine 0.5 g/kg in 250 ml beverage versus placebo (mix alone)", "note": "At least one compound was matched to its structure with a doubt left."}
{"smiles": "COCCOC(=O)C1=C(C)NC(C)=C(C(=O)OC(C)C)C1c1cccc([N+](=O)[O-])c1", "note": "(centres unmarked) [nimodipine]", "values": [{"measurement": "metabolism in the cingulate gyrus and/or left posterior temporal lobe", "result": "decreased metabolism"}, {"measurement": "metabolism in the superior portion of the cerebellum and/or interior portion of the occipital lobe", "result": "patchy increased metabolism"}]}
